PubChem BioAssay AID1159596, NIAID – 2016
The whole screen tested 756 reagents; below is a part drawn at random. 143 of all reagents (19%) count as active. 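Active means the reporter moved past about ±1.5 in either direction; scores are per single siRNA, not per gene; peptidoglycan dose not given.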 The numbers tell different reagents against one gene apart. Not given: the amount of reagent.

Purpose: 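Genes whose silencing alters the TNF reporter response of macrophage-like cells to peptidoglycan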 (primary screen)
Cells: human THP1 B5 monocytic reporter cells made macrophage-like with PMA
Reagents: single siRNA against human genes
Duration: assayed 48 to 72 hours after siRNA transfection; peptidoglycan stimulation lasted 4 hours
Challenge: Staphylococcus aureus peptidoglycan for 4 hours; dose not given
Read-out: 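TNF-alpha promoter firefly/renilla luciferase ratio after 4 h s. aureus peptidoglycan; plate median/MAD scaled, robust z versus negative control wells, mean of replicates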
Reading the numbers: TNF reporter z-score: higher = stronger TNF promoter reporter response to peptidoglycan
Rule for the call: In these data the active calls have TNF reporter z-score, replicate mean at about -1.5 or lower, or at about 1.5 or higher
Calls: active = reporter shifted beyond cut (either direction); inactive = reporter near control level

TNF reporter z-score, replicate mean, by gene and reagent
TAB3 (GeneID 257397): #1 -0.425 inactive; #2 0.106 inactive; #3 -0.626 inactive; #4 -0.0235 inactive; #5 -0.0754 inactive; #6 -0.932 inactive
IRF7 (GeneID 3665): #1 -0.544 inactive; #2 -1.13 inactive; #3 -0.424 inactive; #4 -0.895 inactive; #5 -1.17 inactive; #6 -1.38 inactive
PIK3CB (GeneID 5291): #1 -2.22 active; #2 -0.795 inactive; #3 -0.726 inactive; #4 -0.51 inactive; #5 0.374 inactive; #6 -0.0554 inactive
IL6 (GeneID 3569): #1 0.186 inactive; #2 -0.954 inactive; #3 -1.84 active; #4 -0.517 inactive; #5 -0.525 inactive; #6 0.4 inactive
CXCL11 (GeneID 6373): #1 -1.95 active; #2 0.0069 inactive; #3 -0.112 inactive; #4 -0.297 inactive; #5 -0.524 inactive; #6 -0.648 inactive
LY96 (GeneID 23643): #1 -0.0761 inactive; #2 0.643 inactive; #3 1.38 inactive; #4 -0.873 inactive; #5 -0.279 inactive; #6 -0.111 inactive
MAPK1 (GeneID 5594): #1 -0.134 inactive; #2 0.135 inactive; #3 -0.172 inactive; #4 0.525 inactive; #5 -0.975 inactive; #6 0.0133 inactive
TLR2 (GeneID 7097): #1 -3.95 active; #2 -2.68 active; #3 -3.19 active; #4 -2.21 active; #5 -0.845 inactive; #6 -2.61 active
MAPK13 (GeneID 5603): #1 -2.09 active; #2 -1.26 inactive; #3 -1.3 inactive; #4 -1.82 active; #5 -0.627 inactive; #6 0.309 inactive

Laid out differently: results already given.
gene | reagent | TNF reporter z-score, replicate mean | Call
TAB3 (GeneID 257397) | 2 | 0.106 | inactive
TAB3 (GeneID 257397) | 3 | -0.626 | inactive
TAB3 (GeneID 257397) | 4 | -0.0235 | inactive
TAB3 (GeneID 257397) | 5 | -0.0754 | inactive
TAB3 (GeneID 257397) | 6 | -0.932 | inactive
IRF7 (GeneID 3665) | 1 | -0.544 | inactive
IRF7 (GeneID 3665) | 2 | -1.13 | inactive
IRF7 (GeneID 3665) | 3 | -0.424 | inactive

Continued.
TNF reporter z-score, replicate mean, by gene and reagent
UBE2V1 (GeneID 7335): #1 -0.337 inactive; #2 0.226 inactive; #3 0.751 inactive; #4 -0.745 inactive; #5 -0.512 inactive; #6 0.168 inactive
MAP3K8 (GeneID 1326): #1 -2.01 active; #2 -2.5 active; #3 -1.39 inactive; #4 -1.45 inactive; #5 -1.97 active; #6 -1.28 inactive
ATF2 (GeneID 1386): #1 -1.53 active; #2 -0.169 inactive; #3 -0.654 inactive; #4 -0.269 inactive; #5 -0.718 inactive; #6 -2.32 active
ARF6 (GeneID 382): #1 0.211 inactive; #2 -0.942 inactive; #3 0.503 inactive; #4 -0.811 inactive; #5 -0.229 inactive; #6 0.281 inactive
MAP2K7 (GeneID 5609): #1 -1.19 inactive; #2 -1.11 inactive; #3 -1.11 inactive; #4 -1.83 active; #5 -1.78 active; #6 -1.35 inactive
ELK1 (GeneID 2002): #1 -2.4 active; #2 -2.18 active; #3 -1.71 active; #4 -0.531 inactive; #5 -0.555 inactive; #6 0.441 inactive
PIK3CD (GeneID 5293): #1 -1.61 active; #2 -0.318 inactive; #3 0.389 inactive; #4 -1.39 inactive; #5 0.967 inactive; #6 -0.0793 inactive
PIK3R5 (GeneID 23533): #1 0.0689 inactive; #2 -1.32 inactive; #3 -0.657 inactive; #4 -0.33 inactive; #5 -0.992 inactive; #6 -1.12 inactive
IL33R (GeneID 9173): #1 -0.398 inactive; #2 -1.73 active; #3 -0.643 inactive; #4 0.763 inactive; #5 -1.59 active; #6 -0.163 inactive
ITGAM (GeneID 3684): #1 0.927 inactive; #2 -1.39 inactive; #3 -0.323 inactive; #4 -0.756 inactive; #5 -0.223 inactive; #6 0.506 inactive
PIK3CG (GeneID 5294): #1 -2.33 active; #2 -0.0341 inactive; #3 -0.713 inactive; #4 -0.493 inactive; #5 0.539 inactive; #6 -0.662 inactive
NFKB1 (GeneID 4790): #1 -0.943 inactive; #2 -0.155 inactive; #3 -0.574 inactive; #4 -1.02 inactive; #5 0.763 inactive; #6 0.043 inactive
RELB (GeneID 5971): #1 0.952 inactive; #2 1.04 inactive; #3 1.1 inactive; #4 -0.341 inactive; #5 0.423 inactive; #6 0.54 inactive
CD14 (GeneID 929): #1 0.492 inactive; #2 -0.181 inactive; #3 1.17 inactive; #4 -0.494 inactive; #5 -0.981 inactive; #6 0.407 inactive
DAB2IP (GeneID 153090): #1 -1 inactive; #2 -1.18 inactive; #3 1.13 inactive; #4 -1.96 active; #5 -0.843 inactive; #6 -0.563 inactive
